System: HepG2 cells
Test: CellTiter-Glo cell viability assay
Format: cell-based, Human
Details: HepG2, 24 h treatment; mean ± SD of three experiments

Structure (SMILES): CCCCc1oc2ccccc2c1C(=O)c1cc(I)c(OCCN(CC)CC)c(I)c1 [Amiodarone]
- Cell Viability Efficacy (maximum inhibition of cell viability): 63.1±32.1%

— paper PMC4550094 (Journal of biomolecular screening, 2013)
